No constants are given. Whether binding was seen depends on the method and setting. Binding seen in cells or lysates may run through a third protein. Some entries that bind do so weakly or less than the wild type. Where a sequence is shown, tags or fusion partners need not be part of it.
Experiments:
Experiment in all cases: co-IP
[1] = biological target: Hexokinase 2 (Hxk2), wild type, V5- or GFP-tagged, in yeast extract (S. cerevisiae) (UniProt P04807)
[2] = biological target: Hexokinase 1 (Hxk1), V5- or GFP-tagged, in yeast extract (S. cerevisiae) (UniProt P04806)
[3] = biological target: Glucokinase 1 (Glk1), V5- or GFP-tagged, in yeast extract (S. cerevisiae) (UniProt P17709)
[4] = biological target: Hxk2^S15D, V5- or GFP-tagged, in yeast extract (S. cerevisiae) (UniProt P04807)
[5] = biological target: Hxk2^Δ7-16, V5- or GFP-tagged, in yeast extract (S. cerevisiae) (UniProt P04807)
[6] = biological target: Hxk2^K13A, V5- or GFP-tagged, in yeast extract (S. cerevisiae) (UniProt P04807)
[7] = biological target: Hxk2^D106A, V5- or GFP-tagged, in yeast extract (S. cerevisiae) (UniProt P04807)

B1: Hexokinase 2 (Hxk2), wild type, V5- or GFP-tagged, in yeast extract (enzyme, UniProt P04807 1-486)
chain: MVHLGPKKPQARKGSMADVPKELMQQIENFEKIFTVPTETLQAVTKHFISELEKGLSKKGGNIPMIPGWVMDFPTGKESGDFLAIDLGGTNLRVVLVKLGGDRTFDTTQSKYRLPDAMRTTQNPDELWEFIADSLKAFIDEQFPQGISEPIPLGFTFSFPASQNKINEGILQRWTKGFDIPNIENHDVVPMLQKQITKRNIPIEVVALINDTTGTLVASYYTDPETKMGVIFGTGVNGAYYDVCSDIEKLQGKLSDDIPPSAPMAINCEYGSFDNEHVVLPRTKYDITIDEESPRPGQQTFEKMSSGYYLGEILRLALMDMYKQGFIFKNQDLSKFDKPFVMDTSYPARIEEDPFENLEDTDDLFQNEFGINTTVQERKLIRRLSELIGARAARLSVCGIAAICQKRGYKTGHIAADGSVYNRYPGFKEKAANALKDIYGWTQTSLDDYPIKIVPAEDGSGAGAAVIAALAQKRIAEGKSVGIIGA
[1]
  binding: binds

B2: Hexokinase 1 (Hxk1), V5- or GFP-tagged, in yeast extract (enzyme, UniProt P04806 1-485)
chain: MVHLGPKKPQARKGSMADVPKELMDEIHQLEDMFTVDSETLRKVVKHFIDELNKGLTKKGGNIPMIPGWVMEFPTGKESGNYLAIDLGGTNLRVVLVKLSGNHTFDTTQSKYKLPHDMRTTKHQEELWSFIADSLKDFMVEQELLNTKDTLPLGFTFSYPASQNKINEGILQRWTKGFDIPNVEGHDVVPLLQNEISKRELPIEIVALINDTVGTLIASYYTDPETKMGVIFGTGVNGAFYDVVSDIEKLEGKLADDIPSNSPMAINCEYGSFDNEHLVLPRTKYDVAVDEQSPRPGQQAFEKMTSGYYLGELLRLVLLELNEKGLMLKDQDLSKLKQPYIMDTSYPARIEDDPFENLEDTDDIFQKDFGVKTTLPERKLIRRLCELIGTRAARLAVCGIAAICQKRGYKTGHIAADGSVYNKYPGFKEAAAKGLRDIYGWTGDASKDPITIVPAEDGSGAGAAVIAALSEKRIAEGKSLGIIGA
[2]
  binding: binds
[1]
  binding: binds

B3: Glucokinase 1 (Glk1), V5- or GFP-tagged, in yeast extract (enzyme, UniProt P17709 1-500)
chain: MSFDDLHKATERAVIQAVDQICDDFEVTPEKLDELTAYFIEQMEKGLAPPKEGHTLASDKGLPMIPAFVTGSPNGTERGVLLAADLGGTNFRICSVNLHGDHTFSMEQMKSKIPDDLLDDENVTSDDLFGFLARRTLAFMKKYHPDELAKGKDAKPMKLGFTFSYPVDQTSLNSGTLIRWTKGFRIADTVGKDVVQLYQEQLSAQGMPMIKVVALTNDTVGTYLSHCYTSDNTDSMTSGEISEPVIGCIFGTGTNGCYMEEINKITKLPQELRDKLIKEGKTHMIINVEWGSFDNELKHLPTTKYDVVIDQKLSTNPGFHLFEKRVSGMFLGEVLRNILVDLHSQGLLLQQYRSKEQLPRHLTTPFQLSSEVLSHIEIDDSTGLRETELSLLQSLRLPTTPTERVQIQKLVRAISRRSAYLAAVPLAAILIKTNALNKRYHGEVEIGCDGSVVEYYPGFRSMLRHALALSPLGAEGERKVHLKIAKDGSGVGAALCALVA
[3]
  binding: binds

B4: Hxk2^S15D, V5- or GFP-tagged, in yeast extract (enzyme, UniProt P04807 1-486)
chain: MVHLGPKKPQARKGDMADVPKELMQQIENFEKIFTVPTETLQAVTKHFISELEKGLSKKGGNIPMIPGWVMDFPTGKESGDFLAIDLGGTNLRVVLVKLGGDRTFDTTQSKYRLPDAMRTTQNPDELWEFIADSLKAFIDEQFPQGISEPIPLGFTFSFPASQNKINEGILQRWTKGFDIPNIENHDVVPMLQKQITKRNIPIEVVALINDTTGTLVASYYTDPETKMGVIFGTGVNGAYYDVCSDIEKLQGKLSDDIPPSAPMAINCEYGSFDNEHVVLPRTKYDITIDEESPRPGQQTFEKMSSGYYLGEILRLALMDMYKQGFIFKNQDLSKFDKPFVMDTSYPARIEEDPFENLEDTDDLFQNEFGINTTVQERKLIRRLSELIGARAARLSVCGIAAICQKRGYKTGHIAADGSVYNRYPGFKEKAANALKDIYGWTQTSLDDYPIKIVPAEDGSGAGAAVIAALAQKRIAEGKSVGIIGA
[4]
  binding: no binding

B5: Hxk2^Δ7-16, V5- or GFP-tagged, in yeast extract (enzyme, UniProt P04807)
chain: MVHLGPADVPKELMQQIENFEKIFTVPTETLQAVTKHFISELEKGLSKKGGNIPMIPGWVMDFPTGKESGDFLAIDLGGTNLRVVLVKLGGDRTFDTTQSKYRLPDAMRTTQNPDELWEFIADSLKAFIDEQFPQGISEPIPLGFTFSFPASQNKINEGILQRWTKGFDIPNIENHDVVPMLQKQITKRNIPIEVVALINDTTGTLVASYYTDPETKMGVIFGTGVNGAYYDVCSDIEKLQGKLSDDIPPSAPMAINCEYGSFDNEHVVLPRTKYDITIDEESPRPGQQTFEKMSSGYYLGEILRLALMDMYKQGFIFKNQDLSKFDKPFVMDTSYPARIEEDPFENLEDTDDLFQNEFGINTTVQERKLIRRLSELIGARAARLSVCGIAAICQKRGYKTGHIAADGSVYNRYPGFKEKAANALKDIYGWTQTSLDDYPIKIVPAEDGSGAGAAVIAALAQKRIAEGKSVGIIGA
[5]
  binding: no binding

B6: Hxk2^K13A, V5- or GFP-tagged, in yeast extract (enzyme, UniProt P04807 1-486)
chain: MVHLGPKKPQARAGSMADVPKELMQQIENFEKIFTVPTETLQAVTKHFISELEKGLSKKGGNIPMIPGWVMDFPTGKESGDFLAIDLGGTNLRVVLVKLGGDRTFDTTQSKYRLPDAMRTTQNPDELWEFIADSLKAFIDEQFPQGISEPIPLGFTFSFPASQNKINEGILQRWTKGFDIPNIENHDVVPMLQKQITKRNIPIEVVALINDTTGTLVASYYTDPETKMGVIFGTGVNGAYYDVCSDIEKLQGKLSDDIPPSAPMAINCEYGSFDNEHVVLPRTKYDITIDEESPRPGQQTFEKMSSGYYLGEILRLALMDMYKQGFIFKNQDLSKFDKPFVMDTSYPARIEEDPFENLEDTDDLFQNEFGINTTVQERKLIRRLSELIGARAARLSVCGIAAICQKRGYKTGHIAADGSVYNRYPGFKEKAANALKDIYGWTQTSLDDYPIKIVPAEDGSGAGAAVIAALAQKRIAEGKSVGIIGA
[6]
  binding: no binding

B7: Hxk2^D106A, V5- or GFP-tagged, in yeast extract (enzyme, UniProt P04807 1-486)
chain: MVHLGPKKPQARKGSMADVPKELMQQIENFEKIFTVPTETLQAVTKHFISELEKGLSKKGGNIPMIPGWVMDFPTGKESGDFLAIDLGGTNLRVVLVKLGGDRTFATTQSKYRLPDAMRTTQNPDELWEFIADSLKAFIDEQFPQGISEPIPLGFTFSFPASQNKINEGILQRWTKGFDIPNIENHDVVPMLQKQITKRNIPIEVVALINDTTGTLVASYYTDPETKMGVIFGTGVNGAYYDVCSDIEKLQGKLSDDIPPSAPMAINCEYGSFDNEHVVLPRTKYDITIDEESPRPGQQTFEKMSSGYYLGEILRLALMDMYKQGFIFKNQDLSKFDKPFVMDTSYPARIEEDPFENLEDTDDLFQNEFGINTTVQERKLIRRLSELIGARAARLSVCGIAAICQKRGYKTGHIAADGSVYNRYPGFKEKAANALKDIYGWTQTSLDDYPIKIVPAEDGSGAGAAVIAALAQKRIAEGKSVGIIGA
[7]
  binding: no binding

Reference: publication doi:10.1101/2022.11.30.518474
